Laboratory results as given in the supplement of paper PMC8728848.
Some of the results follow.

Experiments:
Experiment in all cases: glycan array binding signal (z-score within array); higher = stronger binding
Settings in all cases: glycan notation: IUPAC condensed, linker removed
[1] = molecular target: Fuc(a1-2)Gal(b1-4)[Fuc(a1-3)]GlcNAc
In short: (§1)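 The binding signal is a Z-score computed within each array. Data were drawn from 3228 arrays in the Consortium for Functional Glycomics database, restricted to those with a known protein sequence. Scores were averaged over arrays of the same protein sequence at different concentrations or buffers, and over linkers, and negative values can be taken as non-binding.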

[2] = molecular target: Fuc(a1-2)Gal(b1-4)[Fuc(a1-3)]GlcNAc(b1-2)Man(a1-3)[Fuc(a1-2)Gal(b1-4)[Fuc(a1-3)]GlcNAc(b1-2)Man(a1-6)]Man(b1-4)GlcNAc(b1-4)[Fuc(a1-6)]GlcNAc
In short: as §1

[3] = molecular target: Fuc(a1-2)Gal(b1-4)[Fuc(a1-3)]GlcNAc(b1-2)[Fuc(a1-2)Gal(b1-4)[Fuc(a1-3)]GlcNAc(b1-4)]Man(a1-3)[Fuc(a1-2)Gal(b1-4)[Fuc(a1-3)]GlcNAc(b1-2)Man(a1-6)]Man(b1-4)GlcNAc(b1-4)GlcNAc
In short: as §1

[4] = molecular target: Fuc(a1-2)Gal(b1-4)[Fuc(a1-3)]GlcNAc(b1-3)Gal(b1-4)[Fuc(a1-3)]GlcNAc
In short: as §1

[5] = molecular target: Fuc(a1-2)Gal(b1-4)[Fuc(a1-3)]GlcNAc(b1-3)Gal(b1-4)[Fuc(a1-3)]GlcNAc(b1-3)Gal(b1-4)[Fuc(a1-3)]GlcNAc
In short: as §1

[6] = molecular target: Fuc(a1-2)Gal(b1-4)[Fuc(a1-3)]GlcNAc(b1-3)GalNAc
In short: as §1

[7] = molecular target: Fuc(a1-2)Gal(b1-4)[Fuc(a1-3)]GlcNAc(b1-3)[Neu5Ac(a2-6)Gal(b1-4)GlcNAc(b1-6)]Gal(b1-4)Glc
In short: as §1

[8] = molecular target: Fuc(a1-2)Gal3S(b1-4)GlcNAc
In short: as §1

[9] = molecular target: Fuc(a1-2)Gal6S(b1-3)GlcNAc
In short: as §1

[10] = molecular target: Fuc(a1-2)Gal6S(b1-3)GlcNAc6S
In short: as §1

Fuc(a1-2)Gal6S(b1-4)Glc = molecular target: Fuc(a1-2)Gal6S(b1-4)Glc
In short: as §1

[11] = molecular target: Fuc(a1-2)Gal6S(b1-4)Glc6S
In short: as §1

Fuc(a1-2)[Gal(a1-3)]Gal = molecular target: Fuc(a1-2)[Gal(a1-3)]Gal
In short: as §1

[12] = molecular target: Fuc(a1-2)[Gal(a1-3)]Gal(b1-3)GalNAc
In short: as §1

[13] = molecular target: Fuc(a1-2)[Gal(a1-3)]Gal(b1-3)GalNAc(b1-3)Gal(a1-4)Gal(b1-4)Glc
In short: as §1

[14] = molecular target: Fuc(a1-2)[Gal(a1-3)]Gal(b1-3)GlcNAc
In short: as §1

[15] = molecular target: Fuc(a1-2)[Gal(a1-3)]Gal(b1-3)GlcNAc(b1-2)Man(a1-3)[Fuc(a1-2)[Gal(a1-3)]Gal(b1-3)GlcNAc(b1-2)Man(a1-6)]Man(b1-4)GlcNAc(b1-4)GlcNAc
In short: as §1

[16] = molecular target: Fuc(a1-2)[Gal(a1-3)]Gal(b1-3)GlcNAc(b1-2)Man(a1-3)[Fuc(a1-2)[Gal(a1-3)]Gal(b1-3)GlcNAc(b1-2)Man(a1-6)]Man(b1-4)GlcNAc(b1-4)[Fuc(a1-6)]GlcNAc
In short: as §1

[17] = molecular target: Fuc(a1-2)[Gal(a1-3)]Gal(b1-3)GlcNAc(b1-3)GalNAc
In short: as §1

[18] = molecular target: Fuc(a1-2)[Gal(a1-3)]Gal(b1-3)GlcNAc(b1-6)GalNAc
In short: as §1

[19] = molecular target: Fuc(a1-2)[Gal(a1-3)]Gal(b1-4)Glc
In short: as §1

[20] = molecular target: Fuc(a1-2)[Gal(a1-3)]Gal(b1-4)GlcNAc
In short: as §1

[21] = molecular target: Fuc(a1-2)[Gal(a1-3)]Gal(b1-4)GlcNAc(b1-2)Man
In short: as §1

[22] = molecular target: Fuc(a1-2)[Gal(a1-3)]Gal(b1-4)GlcNAc(b1-2)Man(a1-3)[Fuc(a1-2)[Gal(a1-3)]Gal(b1-4)GlcNAc(b1-2)Man(a1-6)]Man(b1-4)GlcNAc(b1-4)GlcNAc
In short: as §1

[23] = molecular target: Fuc(a1-2)[Gal(a1-3)]Gal(b1-4)GlcNAc(b1-2)Man(a1-3)[Fuc(a1-2)[Gal(a1-3)]Gal(b1-4)GlcNAc(b1-2)Man(a1-6)]Man(b1-4)GlcNAc(b1-4)[Fuc(a1-6)]GlcNAc
In short: as §1

[24] = molecular target: Fuc(a1-2)[Gal(a1-3)]Gal(b1-4)GlcNAc(b1-3)GalNAc
In short: as §1

[25] = molecular target: Fuc(a1-2)[Gal(a1-3)]Gal(b1-4)GlcNAc(b1-3)[Fuc(a1-2)[Gal(a1-3)]Gal(b1-4)GlcNAc(b1-6)]GalNAc
In short: as §1

[26] = molecular target: Fuc(a1-2)[Gal(a1-3)]Gal(b1-4)GlcNAc(b1-6)GalNAc
In short: as §1

[27] = molecular target: Fuc(a1-2)[Gal(a1-3)]Gal(b1-4)[Fuc(a1-3)]Glc
In short: as §1

[28] = molecular target: Fuc(a1-2)[Gal(a1-3)]Gal(b1-4)[Fuc(a1-3)]GlcNAc
In short: as §1

[29] = molecular target: Fuc(a1-2)[Gal(a1-3)]Gal(b1-4)[Fuc(a1-3)]GlcNAc(b1-3)GalNAc
In short: as §1

[30] = molecular target: Fuc(a1-2)[Gal(a1-4)]Gal(b1-4)GlcNAc
In short: as §1

[31] = molecular target: Fuc(a1-2)[GalNAc(a1-3)]Gal
In short: as §1

[32] = molecular target: Fuc(a1-2)[GalNAc(a1-3)]Gal(b1-3)GalNAc(a1-3)[Fuc(a1-2)]Gal(b1-4)GlcNAc
In short: as §1

[33] = molecular target: Fuc(a1-2)[GalNAc(a1-3)]Gal(b1-3)GalNAc(b1-3)Gal(a1-4)Gal(b1-4)Glc
In short: as §1

[34] = molecular target: Fuc(a1-2)[GalNAc(a1-3)]Gal(b1-3)GlcNAc
In short: as §1

[35] = molecular target: Fuc(a1-2)[GalNAc(a1-3)]Gal(b1-3)GlcNAc(b1-2)Man(a1-3)[Fuc(a1-2)[GalNAc(a1-3)]Gal(b1-3)GlcNAc(b1-2)Man(a1-6)]Man(b1-4)GlcNAc(b1-4)GlcNAc
In short: as §1

[36] = molecular target: Fuc(a1-2)[GalNAc(a1-3)]Gal(b1-3)GlcNAc(b1-2)Man(a1-3)[Fuc(a1-2)[GalNAc(a1-3)]Gal(b1-3)GlcNAc(b1-2)Man(a1-6)]Man(b1-4)GlcNAc(b1-4)[Fuc(a1-6)]GlcNAc
In short: as §1

B1: MUB70 (Lactobacillus reuteri) (protein)
chain: CVHVQYIDGETDQMLRQDDLDGYTDETIPYSTAEGIKKFEGDGYELFKDNFPAGEKFDNDDTNDQFYTVIF
- glycan array binding signal (z-score) [1]: -0.411
- glycan array binding signal (z-score) [2]: -0.091
- glycan array binding signal (z-score) [3]: 0.195
- glycan array binding signal (z-score) [4]: -0.087
- glycan array binding signal (z-score) [5]: 0.074
- glycan array binding signal (z-score) [6]: -0.248
- glycan array binding signal (z-score) [7]: -0.014
- glycan array binding signal (z-score) [8]: 0.054
- glycan array binding signal (z-score) [9]: 0.647
- glycan array binding signal (z-score) [10]: 2.39
- glycan array binding signal (z-score) (Fuc(a1-2)Gal6S(b1-4)Glc): 0.562
- glycan array binding signal (z-score) [11]: 1.07
- glycan array binding signal (z-score) (Fuc(a1-2)[Gal(a1-3)]Gal): -0.393
- glycan array binding signal (z-score) [12]: 0.507
- glycan array binding signal (z-score) [13]: 0.567
- glycan array binding signal (z-score) [14]: 1.39
- glycan array binding signal (z-score) [15]: -0.388
- glycan array binding signal (z-score) [16]: -0.317
- glycan array binding signal (z-score) [17]: -0.352
- glycan array binding signal (z-score) [18]: 0.035
- glycan array binding signal (z-score) [19]: 0.345
- glycan array binding signal (z-score) [20]: 0.671
- glycan array binding signal (z-score) [21]: 0.658
- glycan array binding signal (z-score) [22]: -0.278
- glycan array binding signal (z-score) [23]: -0.624
- glycan array binding signal (z-score) [24]: -0.384
- glycan array binding signal (z-score) [25]: -0.379
- glycan array binding signal (z-score) [26]: -0.784
- glycan array binding signal (z-score) [27]: 0.409
- glycan array binding signal (z-score) [28]: 0.047
- glycan array binding signal (z-score) [29]: -0.291
- glycan array binding signal (z-score) [30]: 0.099
- glycan array binding signal (z-score) [31]: -0.491
- glycan array binding signal (z-score) [32]: -0.674
- glycan array binding signal (z-score) [33]: 0.76
- glycan array binding signal (z-score) [34]: -0.003
- glycan array binding signal (z-score) [35]: -0.62
- glycan array binding signal (z-score) [36]: 0.065
